In the assay the target is CUL4B (human (endogenous in HEK293)) (UniProt Q13620). Nature of the assay: co-IP; lysate of HEK293 cells transfected with pcDNA3-HBx-HA (1% NP-40, 50 mM Tris-HCl pH 7.4, 50 mM EDTA, 150 mM NaCl); precipitated with anti-CUL4B at 4 °C overnight, protein A/G agarose; immunoblot; IgG as negative control.

Sequences of proteins named here, by UniProt entry; tags and fusion partners are left off.
UniProt Q13620: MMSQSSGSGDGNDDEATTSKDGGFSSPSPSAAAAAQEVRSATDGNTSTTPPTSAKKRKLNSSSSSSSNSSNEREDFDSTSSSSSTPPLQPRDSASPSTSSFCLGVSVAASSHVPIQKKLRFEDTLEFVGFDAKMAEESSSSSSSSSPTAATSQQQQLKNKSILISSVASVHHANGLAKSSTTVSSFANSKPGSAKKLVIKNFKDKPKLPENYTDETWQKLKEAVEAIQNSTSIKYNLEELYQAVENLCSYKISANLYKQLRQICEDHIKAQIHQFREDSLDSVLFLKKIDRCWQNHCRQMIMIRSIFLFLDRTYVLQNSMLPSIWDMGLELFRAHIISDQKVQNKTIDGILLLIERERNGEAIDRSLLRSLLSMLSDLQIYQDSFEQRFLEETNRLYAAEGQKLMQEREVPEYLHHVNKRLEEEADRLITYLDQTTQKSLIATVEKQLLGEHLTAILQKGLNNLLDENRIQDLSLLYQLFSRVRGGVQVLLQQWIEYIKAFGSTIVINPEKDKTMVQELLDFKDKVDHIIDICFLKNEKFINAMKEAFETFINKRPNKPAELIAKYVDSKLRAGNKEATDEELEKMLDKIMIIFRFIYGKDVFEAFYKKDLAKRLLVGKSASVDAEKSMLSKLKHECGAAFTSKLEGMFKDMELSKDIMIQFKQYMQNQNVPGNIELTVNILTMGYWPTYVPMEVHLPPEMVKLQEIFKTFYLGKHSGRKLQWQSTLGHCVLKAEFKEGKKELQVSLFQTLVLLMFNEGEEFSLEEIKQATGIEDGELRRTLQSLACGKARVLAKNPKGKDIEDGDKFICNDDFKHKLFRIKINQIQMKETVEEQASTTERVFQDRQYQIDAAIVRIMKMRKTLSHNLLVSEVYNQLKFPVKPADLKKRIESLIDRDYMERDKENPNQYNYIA
UniProt Q16531: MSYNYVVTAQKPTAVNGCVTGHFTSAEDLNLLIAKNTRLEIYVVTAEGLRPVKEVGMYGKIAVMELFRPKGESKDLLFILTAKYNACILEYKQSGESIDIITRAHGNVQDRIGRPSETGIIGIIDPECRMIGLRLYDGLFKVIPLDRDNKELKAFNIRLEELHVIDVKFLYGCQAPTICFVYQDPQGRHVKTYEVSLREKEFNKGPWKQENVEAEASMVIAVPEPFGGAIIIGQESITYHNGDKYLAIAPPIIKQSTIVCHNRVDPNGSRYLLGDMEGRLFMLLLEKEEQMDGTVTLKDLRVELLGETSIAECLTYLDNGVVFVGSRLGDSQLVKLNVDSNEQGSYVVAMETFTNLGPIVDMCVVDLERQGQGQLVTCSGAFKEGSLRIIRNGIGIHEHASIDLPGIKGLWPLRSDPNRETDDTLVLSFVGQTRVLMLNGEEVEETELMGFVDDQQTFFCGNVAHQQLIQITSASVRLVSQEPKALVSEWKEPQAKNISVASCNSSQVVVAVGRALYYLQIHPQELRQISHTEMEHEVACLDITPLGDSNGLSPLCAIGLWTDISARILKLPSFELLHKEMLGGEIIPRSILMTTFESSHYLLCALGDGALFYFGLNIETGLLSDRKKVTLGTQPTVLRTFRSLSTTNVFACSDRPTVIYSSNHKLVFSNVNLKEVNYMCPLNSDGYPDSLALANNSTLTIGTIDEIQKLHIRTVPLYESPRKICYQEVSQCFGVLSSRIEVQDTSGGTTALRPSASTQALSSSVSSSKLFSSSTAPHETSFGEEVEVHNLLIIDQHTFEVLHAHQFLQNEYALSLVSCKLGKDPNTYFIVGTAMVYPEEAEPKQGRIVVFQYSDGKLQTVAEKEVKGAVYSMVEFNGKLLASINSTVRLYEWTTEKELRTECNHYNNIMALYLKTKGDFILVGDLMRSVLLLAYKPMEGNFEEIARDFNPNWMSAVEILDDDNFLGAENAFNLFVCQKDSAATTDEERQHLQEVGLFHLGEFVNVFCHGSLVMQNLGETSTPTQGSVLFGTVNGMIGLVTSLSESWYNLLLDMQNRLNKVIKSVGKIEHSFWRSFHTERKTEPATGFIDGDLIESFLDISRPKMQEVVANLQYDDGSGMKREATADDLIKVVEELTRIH

These are yes or no findings as the source states them, for the method shown. Binding seen in cells or lysates may run through a third protein. Some binding calls cover weakened binding; strength is not graded here.

In the case of “UV-damaged DNA binding protein 1 (DDB1) (from UniProt Q16531 1-1140)”, the binding entry was “binds”.

These data come from PMC8763003.
